These are yes or no findings as the source states them, for the method shown.

Chains of the proteins cited; added tags and fusions are not shown.
UniProt O82486: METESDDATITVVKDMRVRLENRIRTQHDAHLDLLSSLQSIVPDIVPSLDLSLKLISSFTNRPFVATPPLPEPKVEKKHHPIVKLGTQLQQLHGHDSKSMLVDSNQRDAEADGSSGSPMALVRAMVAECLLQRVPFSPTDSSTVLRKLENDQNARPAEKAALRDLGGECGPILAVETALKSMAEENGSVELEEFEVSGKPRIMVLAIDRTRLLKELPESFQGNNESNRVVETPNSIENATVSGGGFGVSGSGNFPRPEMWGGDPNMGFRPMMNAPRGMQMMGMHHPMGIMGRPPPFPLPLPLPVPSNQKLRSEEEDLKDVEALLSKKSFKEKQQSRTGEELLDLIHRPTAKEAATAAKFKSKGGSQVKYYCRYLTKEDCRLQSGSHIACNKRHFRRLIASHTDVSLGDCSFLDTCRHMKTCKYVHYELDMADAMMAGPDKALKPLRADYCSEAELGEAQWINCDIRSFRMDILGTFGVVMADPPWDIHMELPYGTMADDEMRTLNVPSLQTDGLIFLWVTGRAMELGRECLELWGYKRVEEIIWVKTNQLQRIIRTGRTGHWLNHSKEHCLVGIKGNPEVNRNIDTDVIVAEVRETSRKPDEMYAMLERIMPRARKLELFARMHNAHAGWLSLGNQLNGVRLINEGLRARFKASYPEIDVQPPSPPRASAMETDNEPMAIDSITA

Our source for the binding values is publication PMC5488176.

The target in this assay is MTA, yeast two-hybrid fusion (Arabidopsis thaliana) (UniProt O82486). The experiment in a line: two-hybrid; yeast two-hybrid, fusions to activation domain (pDEST22) and binding domain (pDEST32); growth on media lacking histidine with 3-AT (-LTH) or lacking adenine (-LTA), recorded after 4 d; three technical and three biological replicates.

Consider “MTA, yeast two-hybrid fusion (from UniProt O82486 1-685)”, for which the binding entry is given as “no binding”.
